This is an account of results in PubChem BioAssay AID330 (DTP/NCI, 2004).

SMILES strings stand for the structures. The list shows only some results of the screen, not a fair sample: it is rich in T/C values a quarter to a half above the control, in often repeated tests (any T/C) and in doses without a T/C. Other doses and runs of a compound stand elsewhere. T/C gives the treated animals as a percentage of the vehicle group. Some doses have a count of surviving animals in place of a T/C: the source files T/C as zero there, which appears to mark a toxic dose or a test without result, not a measured value. Some survivor counts are full or nearly so, which does not show that the dose was tolerated: the source hardly ever lists a survival T/C far under the control, and the zero likely stands for such cases as well. Counts of survivors are from the toxicity check (mostly the fifth day) where no day follows; animals may have died later. Schedule codes are those of the source, taken here to give the interval after Q, in days (D) or hours (H), and the number of doses after X. Some entries hold several experiments; the results are listed from low to high. Where survival is the endpoint, the PubChem record calls one and a half times the control and up active, and a quarter to a half above the control has no call in these data; cut-offs in other NCI protocols can differ. Some T/C values are followed by the survivors on the day toxicity was checked, most often the fifth; without a count, all were alive then.

The test system of the assay is P388 leukemia ip, CD2F1 mice, survival T/C. As to the kind of experiment: NCI In Vivo Anticancer Drug Screen. Data for tumor model P388 Leukemia (intraperitoneal) in CD2F1 (CDF1) mice. As to conditions: T/C endpoint: median survival time, higher T/C = longer survival.
[1] abbreviates: dose: 50.0 mg/kg/injection, schedule: Q01DX009 (ip), vehicle: saline with Tween-80.
[2] abbreviates: dose: 200.0 mg/kg/injection, schedule: Q01DX009 (ip), vehicle: saline with Tween-80.
[3] abbreviates: dose: 50.0 mg/kg/injection, schedule: Q01DX005 (ip), vehicle: saline with Tween-80.
Setting [4] is: dose: 100.0 mg/kg/injection, schedule: Q01DX005 (ip), vehicle: saline with Tween-80.
[5] abbreviates: dose: 200.0 mg/kg/injection, schedule: Q01DX005 (ip), vehicle: saline with Tween-80.
The mark [6] stands for this setting: dose: 200.0 mg/kg/injection, schedule: Q01DX009 (ip), vehicle: Klucel (hydroxypropylcellulose) (HPC).
The mark [7] stands for this setting: dose: 25.0 mg/kg/injection, schedule: Q01DX005 (ip), vehicle: saline with Tween-80.
The mark [8] stands for this setting: dose: 60.0 mg/kg/injection, schedule: Q01DX005 (ip), vehicle: saline with Tween-80.
The mark [9] stands for this setting: dose: 200.0 mg/kg/injection, schedule: Q01DX009 (ip), vehicle: saline.
Setting [10] is: dose: 120.0 mg/kg/injection, schedule: Q01DX005 (ip), vehicle: saline with Tween-80.
[11] abbreviates: dose: 100.0 mg/kg/injection, schedule: Q01DX005 (ip), vehicle: Klucel (hydroxypropylcellulose) (HPC).
[12] abbreviates: dose: 100.0 mg/kg/injection, schedule: Q01DX009 (ip), vehicle: saline.
Setting [13] is: dose: 200.0 mg/kg/injection, schedule: Q01DX005 (ip), vehicle: Klucel (hydroxypropylcellulose) (HPC).

As to `CC(=O)OCC1OC(S[As](C)C)C(OC(C)=O)C(OC(C)=O)C1OC(C)=O` (stereo not given), the T/C runs as follows: under setting [1], 125 % of control [5 of 6 alive]; (dose: 100.0 mg/kg/injection, schedule: Q01DX009 (ip), vehicle: saline with Tween-80) 129 % of control; under setting [2], 125 % of control.
As to `N#Cc1c(N)nsc1N1CCOCC1`, the survivor count is, setting by setting: under setting [3], 3 of 6; under setting [4], 0 of 6; under setting [5], 0 of 6.
For the molecule `Cc1ccc2nc(N3C(=O)CSC3=S)sc2c1`, the survivor count under setting [6] was 5 of 6.
In the case of `CCOP(=Nc1cc(C)ccc1C)(OCC)OCC`, the survivor count is recorded as 2 of 6 (dose: 100.0 mg/kg/injection, schedule: Q01DX009 (ip), vehicle: Klucel (hydroxypropylcellulose) (HPC)) and 1 of 6 under setting [6].
For `CC1CN=C(c2cccc(NC(=O)NCCCCNC(=O)Nc3cccc(C4=NCC(C)N4)c3)c2)N1` (stereo not given), the survivor count under setting [7] is 0 of 6, the survivor count under setting [3] is on record as 1 of 6, the survivor count under setting [4] was 0 of 6 and the survivor count under setting [5] is reported as 0 of 6.
In the case of `Cc1cc(NC(=S)SCc2ccc(Cl)cc2)ccc1Cl`, the T/C reads like this: (dose: 100.0 mg/kg/injection, schedule: Q01DX009 (ip), vehicle: Klucel (hydroxypropylcellulose) (HPC), evaluated on day 20) 129 % of control; (dose: 100.0 mg/kg/injection, schedule: Q01DX009 (ip), vehicle: Klucel (hydroxypropylcellulose) (HPC), evaluated on day 30) 134 % of control; under setting [6], 142 % of control [5 of 6 alive]. The survivor count is given as 1 of 6 under setting [6] and 0 of 6 (dose: 400.0 mg/kg/injection, schedule: Q01DX009 (ip), vehicle: Klucel (hydroxypropylcellulose) (HPC)).
For the molecule `CCC(c1ccc(OCc2ccccc2)cc1)c1cc2c(cc1OC)OCO2` (stereo not given), the survivor count is given as 6 of 6 (dose: 50.0 mg/kg/injection, schedule: Q01DX005 (ip), vehicle: distilled water + Tween-80); 6 of 6 (dose: 100.0 mg/kg/injection, schedule: Q01DX005 (ip), vehicle: distilled water + Tween-80); 6 of 6 (dose: 200.0 mg/kg/injection, schedule: Q01DX005 (ip), vehicle: distilled water + Tween-80).
Turning to `CCCC(=O)Nc1cc2c3c(c1)CCCN3CCC2`, the survivor count under setting [1] is recorded as 3 of 6.
As to `CSc1c2c([nH]c(=O)c1C#N)-c1ccccc1CC2`, the survivor count under setting [8] is listed as 6 of 6.
`OC1COC2C(O)COC12` (stereo not given): under setting [9], the survivor count was 5 of 6.
As to `CCCCCOCC(=O)O`, under setting [2], the survivor count is 3 of 6.
For `CCOc1nnc(-c2ccc(OC)c(OC)c2)o1`, the survivor count runs as follows: (dose: 25.0 mg/kg/injection, schedule: Q01DX009 (ip), vehicle: other) 6 of 6; (dose: 50.0 mg/kg/injection, schedule: Q01DX009 (ip), vehicle: other) 6 of 6.
Consider `CC1(c2ccccc2)NC(=O)N(CC(=O)N(c2ccccc2)c2ccccc2)C1=O` (stereo not given), for which the survivor count is listed as 6 of 6 under setting [8] and 6 of 6 under setting [10].
Take `CC1c2ccccc2CC(CCN(C)C)c2ccccc21` (stereo not given): the T/C is, setting by setting: under setting [7], 125 % of control; under setting [3], 127 % of control [5 of 6 alive]. For the same molecule, the survivor count reads like this: under setting [3], 0 of 6; under setting [4], 0 of 5; under setting [5], 0 of 5.
As for `Oc1cc2cccc[n+]2c2ccccc12`, the survivor count reads like this: (dose: 120.0 mg/kg/injection, schedule: Q01DX005 (ip), vehicle: Klucel (hydroxypropylcellulose) (HPC)) 0 of 6; (dose: 240.0 mg/kg/injection, schedule: Q01DX005 (ip), vehicle: Klucel (hydroxypropylcellulose) (HPC)) 0 of 6.
For the molecule `CCCCc1ccc2nc(C)cc(N/N=C/c3ccc4c(c3)OCO4)c2c1`, under setting [11], the survivor count is given as 6 of 6.
Take `CN(Cc1cnc2nc(N)nc(N)c2n1)c1ccc(C(=O)NC(CCC(=O)OCc2cc3c(cc2Cl)OCO3)C(=O)OCc2cc3c(cc2Cl)OCO3)cc1` (stereo not given): the survivor count (dose: 7.5 mg/kg/injection, schedule: Q01DX005 (ip), vehicle: saline with Tween-80) is listed as 6 of 6; the survivor count (dose: 15.0 mg/kg/injection, schedule: Q01DX005 (ip), vehicle: saline with Tween-80) is given as 6 of 6; the survivor count (dose: 30.0 mg/kg/injection, schedule: Q01DX005 (ip), vehicle: saline with Tween-80) is 6 of 6; the survivor count under setting [8] is listed as 4 of 6; the survivor count under setting [10] was 4 of 6; the survivor count (dose: 240.0 mg/kg/injection, schedule: Q01DX005 (ip), vehicle: saline with Tween-80) is recorded as 5 of 6.
Regarding `CC(Cc1ccc(O)cc1)NCC(O)c1cc(O)cc(O)c1` (stereo not given), under setting [12], the T/C is 140 % of control.
As for `CCCCCCCCCCCCCCOCC(O)CN(CCO)CCO` (stereo not given), the survivor count reads like this: under setting [12], 5 of 6; under setting [9], 3 of 6.
As to `CNC(=O)OCc1c(COC(=O)NC)c(-c2ccccc2)n(C)c1C`, the T/C is, setting by setting: (dose: 6.25 mg/kg/injection, schedule: Q01DX009 (ip), vehicle: distilled water + Tween-80) 134 and 135 % of control; (dose: 12.5 mg/kg/injection, schedule: Q01DX009 (ip), vehicle: distilled water + Tween-80) 130 and 132 % of control; (dose: 25.0 mg/kg/injection, schedule: Q01DX009 (ip), vehicle: distilled water + Tween-80) 140 and 145 % of control. Further, the survivor count reads like this: (dose: 50.0 mg/kg/injection, schedule: Q01DX009 (ip), vehicle: distilled water + Tween-80) 6 of 6; (dose: 100.0 mg/kg/injection, schedule: Q01DX009 (ip), vehicle: distilled water + Tween-80) 2 of 6 and 5 of 6.
On to `OCC1OC(/C(N=Nc2ccccc2)=N\Nc2ccccc2)C(O)C1O` (stereo not given), for which the survivor count by setting is: under setting [7], 6 of 6; under setting [3], 4 of 6; under setting [4], 5 of 6.
Turning to `O=C(Nc1ccccc1)P(=S)(c1ccccc1)c1ccccc1`, the survivor count under setting [11] is recorded as 6 of 6.
For the molecule `COc1cc2c(cc1OC)C(=O)Nc1nc(N)nc(N)c1C2`, the T/C (dose: 400.0 mg/kg/injection, schedule: Q01DX001 (ip), vehicle: saline with Tween-80) was 141 % of control.
Take `O=S1(=O)OCCO1`: the survivor count was 0 of 6 (dose: 50.0 mg/kg/injection, schedule: Q01DX005 (ip), vehicle: saline) and 0 of 6 (dose: 100.0 mg/kg/injection, schedule: Q01DX005 (ip), vehicle: saline).
In the case of `CC(C)N(C(=S)Sc1c2ccccc2c(Br)c2ccccc12)C(C)C`, the survivor count under setting [11] is recorded as 6 of 6 and the survivor count under setting [13] is 6 of 6.
Take `CCS/C(C#N)=C(/OC)c1ccccc1Cl`: under setting [2], the survivor count is 1 of 6.
Turning to `CS(C)=NC(=Nc1ccccc1)c1ccccc1`, the survivor count (dose: 200.0 mg/kg/injection, schedule: Q04DX003 (ip), vehicle: saline with Tween-80) is given as 0 of 6.
Turning to `Cc1coc2c1C1OC(=O)C3(C/C=C\C(C)C2)OC13` (stereo not given), the survivor count (dose: 45000.0 micrograms/kg/injection, schedule: Q01DX005 (ip), vehicle: Klucel (hydroxypropylcellulose) (HPC)) is 6 of 6.
For `O=C(Nc1cccc(C(F)(F)F)c1)OC1CC2CC1C1CC3OC3C21` (stereo not given), the survivor count under setting [13] is 6 of 6.
Regarding `C[P+]1(C)CCCCC1`, the survivor count (dose: 400.0 mg/kg/injection, schedule: Q01DX001 (ip), vehicle: saline) is 0 of 6.
As for `CCc1cc2c(cc1C(C)=O)C(C)(C)CCC2(C)C`, the survivor count under setting [2] was 5 of 6.
On to `CCN(CC)CCOC(=O)c1ccc(N)cc1`, for which the survivor count under setting [9] is on record as 0 of 6.
For the molecule `C=C[Si](C)(C)c1ccc([Si](C)(C)C=C)cc1`, the survivor count (dose: 50.0 mg/kg/injection, schedule: Q01DX009 (ip), vehicle: saline) is on record as 6 of 6.
Regarding `CCOC(=O)CC1(O)CCC2C3CC=C4CC(OC5CCCCO5)CCC4(C)C3CCC21C` (stereo not given), the survivor count (dose: 25.0 mg/kg/injection, schedule: Q01DX009 (ip), vehicle: saline with Tween-80) is 6 of 6 and the survivor count under setting [1] was 6 of 6.
